Library screen at single concentrations

Sequences of proteins named here, by UniProt entry; tags and fusion partners are left off.
UniProt P9WPC5, whole entry: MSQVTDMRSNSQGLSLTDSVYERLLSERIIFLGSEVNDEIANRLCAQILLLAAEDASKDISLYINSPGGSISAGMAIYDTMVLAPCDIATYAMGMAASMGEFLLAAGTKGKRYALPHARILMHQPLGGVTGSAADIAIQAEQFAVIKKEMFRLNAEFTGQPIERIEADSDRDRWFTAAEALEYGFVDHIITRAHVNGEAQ
UniProt P9WPC3, whole entry partner: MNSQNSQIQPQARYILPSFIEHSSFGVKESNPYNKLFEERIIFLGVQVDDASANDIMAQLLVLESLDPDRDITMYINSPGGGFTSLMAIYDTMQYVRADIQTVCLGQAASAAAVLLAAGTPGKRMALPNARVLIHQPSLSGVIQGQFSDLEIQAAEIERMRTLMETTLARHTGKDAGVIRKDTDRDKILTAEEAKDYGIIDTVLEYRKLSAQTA
UniProt I6X8D2, whole entry: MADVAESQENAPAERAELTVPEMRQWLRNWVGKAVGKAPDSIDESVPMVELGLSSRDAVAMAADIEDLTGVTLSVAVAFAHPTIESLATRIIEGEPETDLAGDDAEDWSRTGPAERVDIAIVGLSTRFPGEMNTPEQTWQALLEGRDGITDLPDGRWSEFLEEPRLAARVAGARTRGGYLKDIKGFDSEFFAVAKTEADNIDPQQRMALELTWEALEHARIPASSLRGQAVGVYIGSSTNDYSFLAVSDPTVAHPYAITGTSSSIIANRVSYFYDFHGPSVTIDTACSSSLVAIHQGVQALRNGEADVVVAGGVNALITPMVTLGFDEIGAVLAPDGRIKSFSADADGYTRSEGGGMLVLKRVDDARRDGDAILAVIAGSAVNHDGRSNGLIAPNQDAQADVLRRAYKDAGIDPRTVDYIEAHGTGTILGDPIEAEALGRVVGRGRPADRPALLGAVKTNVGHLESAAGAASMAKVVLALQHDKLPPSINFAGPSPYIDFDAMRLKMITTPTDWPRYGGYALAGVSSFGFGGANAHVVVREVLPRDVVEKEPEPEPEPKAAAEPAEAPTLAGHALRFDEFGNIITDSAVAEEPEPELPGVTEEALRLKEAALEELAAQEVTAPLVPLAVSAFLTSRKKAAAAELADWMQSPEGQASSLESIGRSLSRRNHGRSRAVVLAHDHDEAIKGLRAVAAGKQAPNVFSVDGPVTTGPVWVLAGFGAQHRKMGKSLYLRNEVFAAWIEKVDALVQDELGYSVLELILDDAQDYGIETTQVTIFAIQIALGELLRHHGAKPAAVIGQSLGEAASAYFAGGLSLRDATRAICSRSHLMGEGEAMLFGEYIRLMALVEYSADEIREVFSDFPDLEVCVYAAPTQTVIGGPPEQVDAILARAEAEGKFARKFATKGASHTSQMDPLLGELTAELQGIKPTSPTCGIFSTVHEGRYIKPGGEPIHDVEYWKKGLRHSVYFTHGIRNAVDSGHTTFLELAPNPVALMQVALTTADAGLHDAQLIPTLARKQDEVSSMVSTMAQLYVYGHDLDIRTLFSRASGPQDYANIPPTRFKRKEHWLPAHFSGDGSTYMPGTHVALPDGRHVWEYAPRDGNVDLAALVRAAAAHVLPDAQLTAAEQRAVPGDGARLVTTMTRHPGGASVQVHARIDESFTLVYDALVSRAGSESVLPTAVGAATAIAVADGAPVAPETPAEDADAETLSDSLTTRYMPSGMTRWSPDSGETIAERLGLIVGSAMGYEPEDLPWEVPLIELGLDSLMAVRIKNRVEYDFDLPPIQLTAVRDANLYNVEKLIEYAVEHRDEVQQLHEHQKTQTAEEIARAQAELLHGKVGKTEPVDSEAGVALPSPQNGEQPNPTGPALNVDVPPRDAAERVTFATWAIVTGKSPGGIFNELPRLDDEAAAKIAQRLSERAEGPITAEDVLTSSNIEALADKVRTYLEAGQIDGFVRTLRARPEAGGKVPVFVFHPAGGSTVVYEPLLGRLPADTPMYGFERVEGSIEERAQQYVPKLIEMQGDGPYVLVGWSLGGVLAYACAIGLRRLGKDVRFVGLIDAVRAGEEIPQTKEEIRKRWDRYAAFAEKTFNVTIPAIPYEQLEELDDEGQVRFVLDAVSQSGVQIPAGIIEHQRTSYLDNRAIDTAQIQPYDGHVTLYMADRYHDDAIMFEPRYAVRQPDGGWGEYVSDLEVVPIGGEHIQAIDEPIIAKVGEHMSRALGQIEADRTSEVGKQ

Data taken from ChEMBL document CHEMBL3988442, “University of Dundee, Small-Polar-MMV Screening Library” (2021).

ClpP1P2: 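ClpP1P2, Mycobacterium tuberculosis (UniProt P9WPC5 and UniProt P9WPC3). Protease assay of ClpP1P2, read by the AMC dye that it sets free. Concentration: 50 µM. Higher reads as stronger inhibition, judged from the few compounds that gave an IC50. Most other retested compounds had strongly negative values. About 69,000 compounds were tested under these conditions; 0.015% (about 10) showed 50% or more at least once.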
Pks13 thioesterase: 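Enzyme assay of the thioesterase domain of polyketide synthase 13; the read-out is not stated. Target: Polyketide synthase Pks13, Mycobacterium tuberculosis (UniProt I6X8D2). Concentration: 30 µM. Higher reads as stronger inhibition (inferred from which compounds were picked for retests). Of about 67,000 compounds tested this way, about 300 (0.46%) reached 50% or more in at least one test.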

The filed quantity is “Percent Effect” (%).
How 0% and 100% were set is not recorded. Most values in the screen are low, and negative values occur.
This is an unselected part of the compounds tested.
A dash means the value is not listed here; it may have been measured.

SMILES	ClpP1P2	Pks13 thioesterase
Cc1cc(C2CCCN(Cc3ncc(C)o3)C2)n[nH]1 (centres unmarked)	-8.164	3.248
CC(C)CCN1CC2(CCN(C3CCCOC3)CC2)OC1=O (centres unmarked)	-11.28	1.156
CN(CC(=O)NC1(C#N)CCCC1)C1CCCN(c2cccnn2)C1 (centres unmarked)	3.174	4.996
COc1cccc(COCC(=O)N2CCCCCC2)c1	-3.058	-
Cc1cc(C)c(CNc2cnc3ccccc3n2)c(=O)[nH]1	8.8	-0.4479
O=C(CN1CCC(C(=O)c2cc(F)ccc2F)CC1)NC1CCCC1	1.586	-20.65
Cc1nccn1-c1cccc(C2CCCN(C3CCCC3)C2)n1 (centres unmarked)	-9.874	19.6
COc1cccc(S(=O)(=O)NC(=O)C2CC(c3ccccc3)=NO2)c1 (centres unmarked)	8.971	-
CN1CCCC(CNC(=O)N2CCN(Cc3ccon3)CC2)C1 (centres unmarked)	-6.796	-18.75
Cc1nc(C(=O)N2CCOC(Cc3ccc(F)cc3)C2)co1 (centres unmarked)	-25.27	6.207
CS(=O)(=O)N[C@H]1CN(CCOCc2ccccc2)C[C@@H]1C1CC1	-1.729	-9.289
O=S(=O)(Cc1ccc(F)cc1)NCCc1nnc2n1CCC2	1.6	8.193
CC(C)CCN(C(=O)c1nc(S(C)(=O)=O)n2ccccc12)C1CC1	-11.89	-14.85
Cc1cccc(CN2C[C@@H]3CN(C(=O)c4ccnnc4)C[C@@H]3C2=O)c1	-15.03	-4.017
CC(C)Cn1ncc(C(=O)O)c1C1CC1	-10.5	-12.41
Cc1ccc(C)c(-n2ncc(NC(=O)NC3(C)CCOC3)c2C)c1 (centres unmarked)	-0.5002	6.41
CC(C)(C)n1ncc(NCc2ccccc2)c(Cl)c1=O	5.244	12.26
CC(C)N1CCc2ncn(C(C)C)c2C1C(=O)NCCN1CCCC1 (centres unmarked)	-7.656	-34.26
CN(C)Cc1cnc2n1CCN(C(=O)Cc1ccsc1)CC2	3.236	17.76
CC(CO)Nc1ccc(-c2nc(Cc3ccc(F)cc3)no2)cn1 (centres unmarked)	-30.84	18.23
CC1=Nc2c(c(=O)[nH]n2C2CCCC2)C(c2cccc(O)c2)S1 (centres unmarked)	9.305	-42.92
Cc1nc(CCC(=O)N2Cc3cnc(-c4ccccc4)nc3C2)n[nH]1	13.46	-6.173
CN(Cc1cnn(C)c1)Cc1nc(CCc2ccccc2)no1	-3.474	8.018
Cn1ccc(NC(=O)CN2CCC(Oc3cnccn3)CC2)n1	-0.4424	1.541
O=C(c1nc2c(s1)CCCN2CC1CC1)N1CCCC1	7.605	-29.41
Cc1cc(C2CCNCC2)nc(-c2ccsc2)n1	-7.539	-6.963
COc1ccc(N2Cc3nc(N4CCCC4)ncc3C2=O)cc1Cl	-0.5459	0.7685
Cc1c(Cn2c(=O)cnc3ccccc32)cnn1C	-13.15	-16.15
Cc1nc(CN2CCCC(NCc3c(C)nc4sccn34)C2)no1 (centres unmarked)	17.93	-16.18
O=C(c1ccco1)N1CCC2(CCC(=O)N2Cc2ccncc2)CC1	7.739	-19.72
Cc1csc(CCCNC(=O)[C@H]2CNC[C@@H](C(=O)N3CCCC3)C2)n1	0.8493	-
Cn1cccc1C(=O)N1CCO[C@H]2[C@H](OCc3cccnc3)CC[C@@H]21	-7.857	-24.13
CCC(=O)N1CCN(c2cc(-n3cnc(C)c3C)nc(C)n2)CC1	-24.76	-3.982
Cc1cc(C)cc(C(=O)NCCCC2(C3OCCO3)CCOCC2)c1	0.7152	-57.03
O=C(NC[C@H]1OC[C@@H]2CCN(C(=O)c3ccco3)C[C@@H]21)C1CC1	-12.27	-17.9
O=c1c2cccc(C(F)(F)F)c2ncn1CCN1CCNCC1	7.896	-12.62
O=C(CCc1cc(Cl)no1)N1CCCCC1CCn1ccnc1 (centres unmarked)	-10.82	-33.43
O=C(CC1CC1)N1CCc2ncc(CN3CCOCC3)n2CC1	-5.128	-2.596
CS(=O)(=O)NCCNC(=O)NC1(c2ccc(F)cc2)CCCC1	4.724	-25.84
CS(=O)(=O)N1Cc2ccccc2C2(CCN(C(=O)c3ccno3)CC2)C1	18.6	-49.48
CS(=O)(=O)Nc1cccc(CNC(=O)c2cccs2)c1	9.505	-4.155
Cc1cc(CN(C)c2nc(-c3ccco3)nc3c2CCN(C)CC3)on1	-3.696	-9.397
Cn1cnc(-c2cc(C(=O)N3CCOCC3)c3ccccn23)c1	-41.38	-4.144
Cc1cccc(CN2C[C@H](NS(C)(=O)=O)[C@@H]3OCCC[C@@H]32)n1	-13.21	-7.968
CN1CC(=O)N(c2ccsc2)CC12CCN(C(=O)CC1CCCC1)C2 (centres unmarked)	4.312	-11.9
CC(C)=CCCC(C)CN1CCC(n2cc(C(C)(C)O)nn2)CC1 (centres unmarked)	3.874	-20.72
CN(C)C(c1ccccn1)[C@H]1CC[C@H](CNC(=O)CC2CCCC2)CC1 (some centres unmarked)	-3.302	9.053
CC(=O)N1CCN(c2nc(C(F)(F)F)nc3sc(C)c(C)c23)CC1	9.35	-24.63
Cc1cc(NCC2CC(=O)Nc3ccccc32)nc(C)n1 (centres unmarked)	5.209	49.63
OCc1c(Cl)ncn1-c1ccc(F)cc1	5.799	-
CCN(Cc1ccco1)C(C)c1nc(C(C)C)no1 (centres unmarked)	4.473	-16.17
O=c1c2cnc(N3CCCCC3)nc2ccn1Cc1ccco1	-8.76	1.167
c1csc(-c2noc(CN3CCCCC3Cn3cccn3)n2)c1 (centres unmarked)	-32.68	-1.139
Cn1ccnc1COc1ccc(COC(=O)C2CCCO2)cc1 (centres unmarked)	-10.16	-3.787
COc1ccc(C(=O)N2CCN3C(=O)CNC(=O)[C@@H]3C2)cc1	-15.16	5.236
COC(=O)CC1CCN(C(=O)c2ccc(C)cc2)CC1	-0.4501	-8.603
CC(C)OC[C@H]1CCC[C@]12CN(S(=O)(=O)c1cn(C)cn1)CCO2	-4.51	18.35

Once more, the final 6:

* O=c1c2cnc(N3CCCCC3)nc2ccn1Cc1ccco1 : ClpP1P2: -8.76%; Pks13 thioesterase: 1.167%
* c1csc(-c2noc(CN3CCCCC3Cn3cccn3)n2)c1 (centres unmarked) : ClpP1P2: -32.68%; Pks13 thioesterase: -1.139%
* Cn1ccnc1COc1ccc(COC(=O)C2CCCO2)cc1 (centres unmarked) : ClpP1P2: -10.16%; Pks13 thioesterase: -3.787%
* COc1ccc(C(=O)N2CCN3C(=O)CNC(=O)[C@@H]3C2)cc1 : ClpP1P2: -15.16%; Pks13 thioesterase: 5.236%
* COC(=O)CC1CCN(C(=O)c2ccc(C)cc2)CC1 : ClpP1P2: -0.4501%; Pks13 thioesterase: -8.603%
* CC(C)OC[C@H]1CCC[C@]12CN(S(=O)(=O)c1cn(C)cn1)CCO2 : ClpP1P2: -4.51%; Pks13 thioesterase: 18.35%